# Data reported in PubChem BioAssay AID540276 (National Center for Advancing Translational Sciences (NCATS), 2011).
# “And” between values parts separate entries of the source, which are not always exact repeats. Identical values can stand only once. The campaign covered roughly 300,000 compounds. About 5,400 (1.8%) were called active. Inconclusive results, whose numbers are uncertain, are shown with a selection of clear calls. Calls come from the whole dose curve; tested in HEK293 cells. Potencies of inconclusive entries are doubtful fits and often do not repeat.
# Test: qHTS for inhibitors of binding or entry into cells for Marburg Virus
# Conditions: Marburg virus pseudotyped entry inhibition, cell reporter; activity change, negative = inhibition: at 37.8 µM (top of the series) unless noted
# % is set by controls: 0 for no effect and ±100 for the full control effect; potency is the fitted concentration of half-maximal effect.
SMILES,"activity change, negative = inhibition",Potency
O=C(CN1CCN(c2cnn(-c3ccccc3)c(=O)c2Cl)CC1)NC1CCS(=O)(=O)C1 (stereo not drawn),inactive: -4.33%,–
Cc1nn(-c2ccccc2)c(C)c1NC(=O)COC(=O)c1ccc(O)cc1O,inactive: 3.89% [at 46.1 µM],–
O=C1Nc2cc(C(=O)N3CCOCC3)ccc2SC1N1CCOCC1 (stereo not drawn),inactive: 5.97%,–
O=c1cc(O)cc(/C=C/c2ccc(O)c(O)c2)o1,–,"inactive and inconclusive: 3.15 µM [inhibitor, partial curve, poor fit]"
COc1ccc(OCC(O)CNS(=O)(=O)c2cccc(Cl)c2)cc1 (stereo not drawn),–,"inconclusive: 15.8 µM [inhibitor, partial curve, poor fit]"
Cc1ccc(CNC(=O)COc2ccc(C(=O)c3ccc(F)cc3)cc2)cc1,inactive: -21.5%,–
COc1ccccc1CNC(=O)CCS(=O)(=O)c1ccc2c(c1)CCN2C(C)=O,–,"inconclusive: 6.31 µM [activator, partial curve, poor fit]"
Cc1ccc2c(c1)c1c(n2CC(O)Cn2c(C)nc3ccccc32)/C(=N\O)CCC1 (stereo not drawn),–,"inconclusive: 35.5 µM [inhibitor, single point]"
CSc1nnc(COc2ccc(C)cc2)n1N,–,"inconclusive: 0.082 µM [inhibitor, full curve, poor fit]"
COc1ccc2cc3c(N)nn(C(=O)c4ccccc4[N+](=O)[O-])c3nc2c1,–,"inconclusive: 7.94 µM [inhibitor, partial curve, poor fit]"
Cc1cccc2c1N(C(=O)c1ccco1)C(C)(C)c1ssc(=S)c1-2,–,"inconclusive: 3.55 µM [inhibitor, partial curve, poor fit]"
O=C(Cc1cccc2ccccc12)Nc1ccc(-c2cc3ccccc3oc2=O)cc1,–,"inconclusive: 3.98 µM [inhibitor, full curve]"
Cc1cccc(C2=NC(C(F)(F)F)(C(F)(F)F)c3c(n(-c4ccc(F)cc4)c(=O)[nH]c3=O)N2)c1,–,"inconclusive: 7.08 µM [inhibitor, partial curve, poor fit]"
CSC(=Nc1ccc(Cl)cc1)N[n+]1ccccc1,–,"inconclusive: 6.31 µM [inhibitor, full curve]"
Nc1ncnc2c1ncn2[C@@H]1O[C@H](CNC(=O)[C@@H](N)Cc2ccc(C(F)(F)F)cc2)[C@@H](O)[C@H]1O,inactive: 5.29%,–
Cn1c(O)c(C=Nc2ccccc2-c2ccccc2)c(=O)n(C)c1=O,–,"inconclusive: 31.6 µM [activator, single point]"
Cc1nc(SCC(=O)c2c[nH]c3ccccc23)n[nH]1,inactive: 26.5% [at 46.1 µM],–
CC(=O)Nc1cccc(OCC(=O)Nc2cccc(S(=O)(=O)N3CCCC3)c2)c1,inactive: 5.78%,–
